# In patent US20190194268A1 (DONALD DANFORTH PLANT SCIENCE CENTER, published 2019):
# B1: MtDef5FL1: Medicago truncatula protein with MtDef5 defensin peptides A and B connected by a 7-amino acid linker; SEQ ID NO:7, expressed in Pichia (protein, listed as Medicago truncatula)
# chain: CQKRSTTWSGPCLNTGNCKRQCINVEHATFGACHRQGFGFACFCYKKCAPKKVEPKLCERRSKTWSGPCLISGNCKRQCINVEHATSGACHRQGIGFACFCKKKC
# Assay: transmission electron microscopy of cross-linked protein complex
# Details: TEM, with or without PIP, FIG. 20
molecule,measurement,value
B1,formation of nanonet-like structures,Nanonet-like structures were observed only in the presence of PIP; also recorded: forms nanonet structures in presence of PIP

# Entries after “also recorded” stand apart in the source; their conditions may differ.
